Test results: article PMC7105138, “Modeling cancer genomic data in yeast reveals selection against ATM function during tumorigenesis” (PLoS Genetics, 2020)
No constants are given. Whether binding was seen depends on the method and setting. Some binding calls cover weakened binding; strength is not graded here. Tags and fused reporters may be left off the sequences shown.

T1: Xrs2-FLAG (S. cerevisiae) (UniProt P33301)
T1 sequence: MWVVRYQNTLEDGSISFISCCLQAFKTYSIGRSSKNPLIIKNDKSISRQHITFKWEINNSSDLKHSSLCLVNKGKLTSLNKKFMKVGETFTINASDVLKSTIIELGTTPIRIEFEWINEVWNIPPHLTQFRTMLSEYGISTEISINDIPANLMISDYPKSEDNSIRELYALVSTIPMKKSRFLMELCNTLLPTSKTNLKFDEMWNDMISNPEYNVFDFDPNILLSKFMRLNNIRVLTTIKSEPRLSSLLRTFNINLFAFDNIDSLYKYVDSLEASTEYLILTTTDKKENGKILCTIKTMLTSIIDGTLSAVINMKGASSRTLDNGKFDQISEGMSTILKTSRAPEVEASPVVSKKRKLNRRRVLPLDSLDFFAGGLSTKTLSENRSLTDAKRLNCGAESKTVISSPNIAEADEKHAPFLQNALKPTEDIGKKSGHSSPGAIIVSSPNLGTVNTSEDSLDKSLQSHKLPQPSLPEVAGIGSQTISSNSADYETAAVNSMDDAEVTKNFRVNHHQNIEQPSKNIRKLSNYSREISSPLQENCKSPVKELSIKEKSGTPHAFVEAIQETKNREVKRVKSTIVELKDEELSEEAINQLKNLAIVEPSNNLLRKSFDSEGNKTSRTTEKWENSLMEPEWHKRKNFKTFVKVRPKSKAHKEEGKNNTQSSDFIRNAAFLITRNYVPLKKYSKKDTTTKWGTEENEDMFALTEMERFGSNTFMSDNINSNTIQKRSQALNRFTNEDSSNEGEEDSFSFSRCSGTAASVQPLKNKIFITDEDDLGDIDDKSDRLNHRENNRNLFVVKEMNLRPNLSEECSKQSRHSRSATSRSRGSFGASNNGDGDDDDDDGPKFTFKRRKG

B1: Rad50-K40A (in MRX-K40A) (protein, UniProt P12753 1-1312)
chain: MSAIYKLSIQGIRSFDSNDRETIEFGKPLTLIVGMNGSGATTIIECLKYATTGDLPPNSKGGVFIHDPKITGEKDIRAQVKLAFTSANGLNMIVTRNIQLLMKKTTTTFKTLEGQLVAINNSGDRSTLSTRSLELDAQVPLYLGVPKAILEYVIFCHQEDSLWPLSEPSNLKKKFDEIFQAMKFTKALDNLKSIKKDMSVDIKLLKQSVEHLKLDKDRSKAMKLNIHQLQTKIDQYNEEVSEIESQLNEITEKSDKLFKSNQDFQKILSKVENLKNTKLSISDQVKRLSNSIDILDLSKPDLQNLLANFSKVLMDKNNQLRDLETDISSLKDRQSSLQSLSNSLIRRQGELEAGKETYEKNRNHLSSLKEAFQHKFQGLSNIENSDMAQVNHEMSQFKAFISQDLTDTIDQFAKDIQLKETNLSDLIKSITVDSQNLEYNKKDRSKLIHDSEELAEKLKSFKSLSTQDSLNHELENLKTYKEKLQSWESENIIPKLNQKIEEKNNEMIILENQIEKFQDRIMKTNQQADLYAKLGLIKKSINTKLDELQKITEKLQNDSRIRQVFPLTQEFQRADLEMDFQKLFINMQKNIAINNKKMHELDRRYTNALYNLNTIEKDLQDNQKSKEKVIQLLSENLPEDCTIDEYNDVLEETELSYKTALENLKMHQTTLEFNRKALEIAERDSCCYLCSRKFENESFKSKLLQELKTKTDANFEKTLKDTVQNEKEYLHSLRLLEKHIITLNSINEKIDNSQKCLEKAKEETKTSKSKLDELEVDSTKLKDEKELAESEIRPLIEKFTYLEKELKDLENSSKTISEELSIYNTSEDGIQTVDELRDQQRKMNDSLRELRKTISDLQMEKDEKVRENSRMINLIKEKELTVSEIESSLTQKQNIDDSIRSKRENINDIDSRVKELEARIISLKNKKDEAQSVLDKVKNERDIQVRNKQKTVADINRLIDRFQTIYNEVVDFEAKGFDELQTTIKELELNKAQMLELKEQLDLKSNEVNEEKRKLADSNNEEKNLKQNLELIELKSQLQHIESEISRLDVQNAEAERDKYQEESLRLRTRFEKLSSENAGKLGEMKQLQNQIDSLTHQLRTDYKDIEKNYHKEWVELQTRSFVTDDIDVYSKALDSAIMKYHGLKMQDINRIIDELWKRTYSGTDIDTIKIRSDEVSSTVKGKSYNYRVVMYKQDVELDMRGRCSAGQKVLASIIIRLALSETFGANCGVIALDEPTTNLDEENIESLAKSLHNIINMRRHQKNFQLIVITHDEKFLGHMNAAAFTDHFFKVKRDDRQKSQIEWVDINRVTY
B2: Rad50-L1240F-S343P (in MRX-L1240F-S343P from insect cells) (protein, UniProt P12753 1-1312)
chain: MSAIYKLSIQGIRSFDSNDRETIEFGKPLTLIVGMNGSGKTTIIECLKYATTGDLPPNSKGGVFIHDPKITGEKDIRAQVKLAFTSANGLNMIVTRNIQLLMKKTTTTFKTLEGQLVAINNSGDRSTLSTRSLELDAQVPLYLGVPKAILEYVIFCHQEDSLWPLSEPSNLKKKFDEIFQAMKFTKALDNLKSIKKDMSVDIKLLKQSVEHLKLDKDRSKAMKLNIHQLQTKIDQYNEEVSEIESQLNEITEKSDKLFKSNQDFQKILSKVENLKNTKLSISDQVKRLSNSIDILDLSKPDLQNLLANFSKVLMDKNNQLRDLETDISSLKDRQSSLQSLSNPLIRRQGELEAGKETYEKNRNHLSSLKEAFQHKFQGLSNIENSDMAQVNHEMSQFKAFISQDLTDTIDQFAKDIQLKETNLSDLIKSITVDSQNLEYNKKDRSKLIHDSEELAEKLKSFKSLSTQDSLNHELENLKTYKEKLQSWESENIIPKLNQKIEEKNNEMIILENQIEKFQDRIMKTNQQADLYAKLGLIKKSINTKLDELQKITEKLQNDSRIRQVFPLTQEFQRADLEMDFQKLFINMQKNIAINNKKMHELDRRYTNALYNLNTIEKDLQDNQKSKEKVIQLLSENLPEDCTIDEYNDVLEETELSYKTALENLKMHQTTLEFNRKALEIAERDSCCYLCSRKFENESFKSKLLQELKTKTDANFEKTLKDTVQNEKEYLHSLRLLEKHIITLNSINEKIDNSQKCLEKAKEETKTSKSKLDELEVDSTKLKDEKELAESEIRPLIEKFTYLEKELKDLENSSKTISEELSIYNTSEDGIQTVDELRDQQRKMNDSLRELRKTISDLQMEKDEKVRENSRMINLIKEKELTVSEIESSLTQKQNIDDSIRSKRENINDIDSRVKELEARIISLKNKKDEAQSVLDKVKNERDIQVRNKQKTVADINRLIDRFQTIYNEVVDFEAKGFDELQTTIKELELNKAQMLELKEQLDLKSNEVNEEKRKLADSNNEEKNLKQNLELIELKSQLQHIESEISRLDVQNAEAERDKYQEESLRLRTRFEKLSSENAGKLGEMKQLQNQIDSLTHQLRTDYKDIEKNYHKEWVELQTRSFVTDDIDVYSKALDSAIMKYHGLKMQDINRIIDELWKRTYSGTDIDTIKIRSDEVSSTVKGKSYNYRVVMYKQDVELDMRGRCSAGQKVLASIIIRLALSETFGANCGVIALDEPTTNFDEENIESLAKSLHNIINMRRHQKNFQLIVITHDEKFLGHMNAAAFTDHFFKVKRDDRQKSQIEWVDINRVTY
B3: Rad50-L1240F-I23V (in the Mre11 complex from insect cells) (protein, UniProt P12753 1-1312)
chain: MSAIYKLSIQGIRSFDSNDRETVEFGKPLTLIVGMNGSGKTTIIECLKYATTGDLPPNSKGGVFIHDPKITGEKDIRAQVKLAFTSANGLNMIVTRNIQLLMKKTTTTFKTLEGQLVAINNSGDRSTLSTRSLELDAQVPLYLGVPKAILEYVIFCHQEDSLWPLSEPSNLKKKFDEIFQAMKFTKALDNLKSIKKDMSVDIKLLKQSVEHLKLDKDRSKAMKLNIHQLQTKIDQYNEEVSEIESQLNEITEKSDKLFKSNQDFQKILSKVENLKNTKLSISDQVKRLSNSIDILDLSKPDLQNLLANFSKVLMDKNNQLRDLETDISSLKDRQSSLQSLSNSLIRRQGELEAGKETYEKNRNHLSSLKEAFQHKFQGLSNIENSDMAQVNHEMSQFKAFISQDLTDTIDQFAKDIQLKETNLSDLIKSITVDSQNLEYNKKDRSKLIHDSEELAEKLKSFKSLSTQDSLNHELENLKTYKEKLQSWESENIIPKLNQKIEEKNNEMIILENQIEKFQDRIMKTNQQADLYAKLGLIKKSINTKLDELQKITEKLQNDSRIRQVFPLTQEFQRADLEMDFQKLFINMQKNIAINNKKMHELDRRYTNALYNLNTIEKDLQDNQKSKEKVIQLLSENLPEDCTIDEYNDVLEETELSYKTALENLKMHQTTLEFNRKALEIAERDSCCYLCSRKFENESFKSKLLQELKTKTDANFEKTLKDTVQNEKEYLHSLRLLEKHIITLNSINEKIDNSQKCLEKAKEETKTSKSKLDELEVDSTKLKDEKELAESEIRPLIEKFTYLEKELKDLENSSKTISEELSIYNTSEDGIQTVDELRDQQRKMNDSLRELRKTISDLQMEKDEKVRENSRMINLIKEKELTVSEIESSLTQKQNIDDSIRSKRENINDIDSRVKELEARIISLKNKKDEAQSVLDKVKNERDIQVRNKQKTVADINRLIDRFQTIYNEVVDFEAKGFDELQTTIKELELNKAQMLELKEQLDLKSNEVNEEKRKLADSNNEEKNLKQNLELIELKSQLQHIESEISRLDVQNAEAERDKYQEESLRLRTRFEKLSSENAGKLGEMKQLQNQIDSLTHQLRTDYKDIEKNYHKEWVELQTRSFVTDDIDVYSKALDSAIMKYHGLKMQDINRIIDELWKRTYSGTDIDTIKIRSDEVSSTVKGKSYNYRVVMYKQDVELDMRGRCSAGQKVLASIIIRLALSETFGANCGVIALDEPTTNFDEENIESLAKSLHNIINMRRHQKNFQLIVITHDEKFLGHMNAAAFTDHFFKVKRDDRQKSQIEWVDINRVTY
B4: Mre11-his6 (protein, UniProt P32829 1-692)
chain: MDYPDPDTIRILITTDNHVGYNENDPITGDDSWKTFHEVMMLAKNNNVDMVVQSGDLFHVNKPSKKSLYQVLKTLRLCCMGDKPCELELLSDPSQVFHYDEFTNVNYEDPNFNISIPVFGISGNHDDASGDSLLCPMDILHATGLINHFGKVIESDKIKVVPLLFQKGSTKLALYGLAAVRDERLFRTFKDGGVTFEVPTMREGEWFNLMCVHQNHTGHTNTAFLPEQFLPDFLDMVIWGHEHECIPNLVHNPIKNFDVLQPGSSVATSLCEAEAQPKYVFILDIKYGEAPKMTPIPLETIRTFKMKSISLQDVPHLRPHDKDATSKYLIEQVEEMIRDANEETKQKLADDGEGDMVAELPKPLIRLRVDYSAPSNTQSPIDYQVENPRRFSNRFVGRVANGNNVVQFYKKRSPVTRSKKSGINGTSISDRDVEKLFSESGGELEVQTLVNDLLNKMQLSLLPEVGLNEAVKKFVDKDEKTALKEFISHEISNEVGILSTNEEFLRTDDAEEMKALIKQVKRANSVRPTPPKENDETNFAFNGNGLDSFRSSNREVRTGSPDITQSHVDNESRITHISQAESSKPTSKPKRVRTATKKKIPAFSDSTVISDAENELGDNNDAQDDVDIDENDIIMVSTDEEDASYGLLNGRKTKTKTRPAASTKTASRRGKGRASRTPKTDILGSLLAKKRK

target: T1, Xrs2-FLAG (S. cerevisiae); assay: co-purification on anti-FLAG agarose; Sf9 cells co-infected with baculoviruses for Mre11-his6, Xrs2-FLAG and Rad50 WT or mutant; lysate at 0.5 M NaCl on anti-FLAG M2 agarose overnight at 4°C, washed 10x with 500 mM NaCl, eluted with 3xFLAG peptide in 250 mM NaCl; Coomassie-stained SDS-PAGE

binding, binds:
B1
B2
B3
B4
